From the supplement of paper PMC10849652
This is one part of the list.

Amino acid sequences for entries named in this document (tags omitted). A change or cut given only in a name is not applied to a line headed by its entry.
UniProt O43379: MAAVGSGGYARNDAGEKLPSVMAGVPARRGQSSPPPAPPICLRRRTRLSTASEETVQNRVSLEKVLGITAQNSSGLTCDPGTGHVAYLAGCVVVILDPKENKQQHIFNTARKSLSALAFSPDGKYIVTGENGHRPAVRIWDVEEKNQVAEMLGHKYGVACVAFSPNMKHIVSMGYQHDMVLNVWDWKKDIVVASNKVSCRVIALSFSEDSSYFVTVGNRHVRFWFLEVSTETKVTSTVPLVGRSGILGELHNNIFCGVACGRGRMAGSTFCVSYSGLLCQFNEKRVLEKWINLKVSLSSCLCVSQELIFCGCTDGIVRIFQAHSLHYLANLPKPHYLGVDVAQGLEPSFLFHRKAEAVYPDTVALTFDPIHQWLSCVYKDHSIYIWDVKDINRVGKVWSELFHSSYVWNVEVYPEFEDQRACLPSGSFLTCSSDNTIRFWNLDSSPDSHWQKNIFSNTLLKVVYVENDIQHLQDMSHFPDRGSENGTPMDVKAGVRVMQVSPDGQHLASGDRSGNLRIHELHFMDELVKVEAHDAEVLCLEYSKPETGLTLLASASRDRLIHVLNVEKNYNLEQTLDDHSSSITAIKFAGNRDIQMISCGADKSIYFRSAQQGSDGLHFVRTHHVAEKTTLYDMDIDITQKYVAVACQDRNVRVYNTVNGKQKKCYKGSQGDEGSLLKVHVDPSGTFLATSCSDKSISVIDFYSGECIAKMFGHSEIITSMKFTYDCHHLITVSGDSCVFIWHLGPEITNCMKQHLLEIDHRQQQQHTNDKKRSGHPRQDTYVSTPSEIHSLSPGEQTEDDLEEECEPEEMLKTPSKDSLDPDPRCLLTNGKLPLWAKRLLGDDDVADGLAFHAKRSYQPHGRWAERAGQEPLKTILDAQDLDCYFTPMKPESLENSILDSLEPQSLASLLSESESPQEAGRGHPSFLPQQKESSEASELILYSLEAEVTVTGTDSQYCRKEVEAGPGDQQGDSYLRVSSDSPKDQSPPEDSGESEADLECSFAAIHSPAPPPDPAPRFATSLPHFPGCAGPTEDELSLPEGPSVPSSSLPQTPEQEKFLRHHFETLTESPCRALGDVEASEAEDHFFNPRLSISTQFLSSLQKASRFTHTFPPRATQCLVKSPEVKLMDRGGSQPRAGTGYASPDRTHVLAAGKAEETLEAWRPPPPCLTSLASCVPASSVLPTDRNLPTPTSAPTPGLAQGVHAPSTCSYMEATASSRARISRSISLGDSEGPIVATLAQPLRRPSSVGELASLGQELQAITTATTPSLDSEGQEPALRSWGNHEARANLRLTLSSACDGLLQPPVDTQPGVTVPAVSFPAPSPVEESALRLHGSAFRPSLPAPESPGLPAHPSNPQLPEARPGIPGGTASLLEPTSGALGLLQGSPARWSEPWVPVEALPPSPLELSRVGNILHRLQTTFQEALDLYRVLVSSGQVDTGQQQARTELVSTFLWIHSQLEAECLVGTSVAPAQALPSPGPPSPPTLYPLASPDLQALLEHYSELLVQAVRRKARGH
UniProt Q96S55: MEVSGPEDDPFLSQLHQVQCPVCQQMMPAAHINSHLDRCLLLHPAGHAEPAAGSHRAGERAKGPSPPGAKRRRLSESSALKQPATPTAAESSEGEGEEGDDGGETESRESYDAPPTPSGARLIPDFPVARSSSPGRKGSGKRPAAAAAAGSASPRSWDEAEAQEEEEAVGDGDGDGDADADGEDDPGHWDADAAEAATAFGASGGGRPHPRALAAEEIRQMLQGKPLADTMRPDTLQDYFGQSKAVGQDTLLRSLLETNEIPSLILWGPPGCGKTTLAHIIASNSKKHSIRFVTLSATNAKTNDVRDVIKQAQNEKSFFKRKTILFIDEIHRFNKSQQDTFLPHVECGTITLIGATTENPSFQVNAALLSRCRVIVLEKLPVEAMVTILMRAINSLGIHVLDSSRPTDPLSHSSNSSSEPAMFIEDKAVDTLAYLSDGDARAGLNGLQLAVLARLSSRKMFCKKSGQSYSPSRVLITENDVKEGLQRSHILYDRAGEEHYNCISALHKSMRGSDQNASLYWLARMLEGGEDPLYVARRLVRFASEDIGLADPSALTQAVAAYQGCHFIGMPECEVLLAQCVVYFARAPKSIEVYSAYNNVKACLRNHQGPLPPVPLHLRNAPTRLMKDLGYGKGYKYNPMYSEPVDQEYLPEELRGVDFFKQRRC
UniProt P49754: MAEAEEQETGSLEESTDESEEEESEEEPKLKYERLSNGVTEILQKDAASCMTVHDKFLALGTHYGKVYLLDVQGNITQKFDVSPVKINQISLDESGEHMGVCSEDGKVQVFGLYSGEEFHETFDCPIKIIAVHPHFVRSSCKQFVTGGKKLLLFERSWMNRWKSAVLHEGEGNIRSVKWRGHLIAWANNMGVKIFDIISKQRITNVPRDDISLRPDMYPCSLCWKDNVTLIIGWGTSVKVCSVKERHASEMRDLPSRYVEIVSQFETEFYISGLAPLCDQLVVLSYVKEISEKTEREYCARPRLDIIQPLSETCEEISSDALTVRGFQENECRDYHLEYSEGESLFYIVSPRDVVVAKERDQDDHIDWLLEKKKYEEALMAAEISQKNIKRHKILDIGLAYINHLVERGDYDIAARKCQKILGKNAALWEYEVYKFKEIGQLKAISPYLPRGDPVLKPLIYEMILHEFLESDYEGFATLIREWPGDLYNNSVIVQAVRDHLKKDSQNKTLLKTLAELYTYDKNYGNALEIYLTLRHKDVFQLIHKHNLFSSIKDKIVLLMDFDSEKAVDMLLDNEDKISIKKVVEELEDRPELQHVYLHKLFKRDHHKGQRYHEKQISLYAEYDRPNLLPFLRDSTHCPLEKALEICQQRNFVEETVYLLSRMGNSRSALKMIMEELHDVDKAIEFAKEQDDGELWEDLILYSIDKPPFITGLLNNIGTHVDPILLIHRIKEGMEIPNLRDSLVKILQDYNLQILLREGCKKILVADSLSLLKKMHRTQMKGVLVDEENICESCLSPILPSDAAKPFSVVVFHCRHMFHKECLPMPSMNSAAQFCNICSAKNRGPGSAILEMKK
UniProt P04004: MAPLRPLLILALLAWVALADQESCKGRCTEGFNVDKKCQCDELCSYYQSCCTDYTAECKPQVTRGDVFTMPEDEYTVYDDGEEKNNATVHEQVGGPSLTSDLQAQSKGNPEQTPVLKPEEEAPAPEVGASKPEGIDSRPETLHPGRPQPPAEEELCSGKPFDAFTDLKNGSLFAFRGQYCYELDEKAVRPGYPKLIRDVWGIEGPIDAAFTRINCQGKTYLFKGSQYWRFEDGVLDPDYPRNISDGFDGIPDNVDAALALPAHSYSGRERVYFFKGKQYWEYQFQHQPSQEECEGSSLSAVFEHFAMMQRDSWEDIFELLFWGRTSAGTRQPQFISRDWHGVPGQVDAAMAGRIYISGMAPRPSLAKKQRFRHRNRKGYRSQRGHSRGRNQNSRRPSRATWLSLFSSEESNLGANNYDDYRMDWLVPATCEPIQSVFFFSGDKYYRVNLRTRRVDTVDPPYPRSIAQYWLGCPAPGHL
UniProt Q9Y2W2: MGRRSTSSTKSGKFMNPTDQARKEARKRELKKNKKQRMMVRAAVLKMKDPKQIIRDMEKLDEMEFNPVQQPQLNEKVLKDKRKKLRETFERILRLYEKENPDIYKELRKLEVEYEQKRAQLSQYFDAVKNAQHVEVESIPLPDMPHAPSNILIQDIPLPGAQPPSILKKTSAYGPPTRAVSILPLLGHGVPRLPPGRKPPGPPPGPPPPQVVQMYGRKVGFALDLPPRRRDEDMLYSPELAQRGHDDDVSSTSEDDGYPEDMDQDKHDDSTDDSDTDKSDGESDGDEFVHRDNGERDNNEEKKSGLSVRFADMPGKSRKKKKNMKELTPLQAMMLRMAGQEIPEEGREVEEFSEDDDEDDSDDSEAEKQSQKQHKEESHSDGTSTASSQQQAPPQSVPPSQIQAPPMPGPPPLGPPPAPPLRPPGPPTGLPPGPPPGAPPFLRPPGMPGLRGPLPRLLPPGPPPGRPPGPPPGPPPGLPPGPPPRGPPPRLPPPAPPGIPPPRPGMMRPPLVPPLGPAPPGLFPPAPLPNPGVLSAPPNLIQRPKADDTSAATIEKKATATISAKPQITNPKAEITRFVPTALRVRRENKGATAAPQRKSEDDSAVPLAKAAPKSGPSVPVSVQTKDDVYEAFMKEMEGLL
UniProt Q8N3P4: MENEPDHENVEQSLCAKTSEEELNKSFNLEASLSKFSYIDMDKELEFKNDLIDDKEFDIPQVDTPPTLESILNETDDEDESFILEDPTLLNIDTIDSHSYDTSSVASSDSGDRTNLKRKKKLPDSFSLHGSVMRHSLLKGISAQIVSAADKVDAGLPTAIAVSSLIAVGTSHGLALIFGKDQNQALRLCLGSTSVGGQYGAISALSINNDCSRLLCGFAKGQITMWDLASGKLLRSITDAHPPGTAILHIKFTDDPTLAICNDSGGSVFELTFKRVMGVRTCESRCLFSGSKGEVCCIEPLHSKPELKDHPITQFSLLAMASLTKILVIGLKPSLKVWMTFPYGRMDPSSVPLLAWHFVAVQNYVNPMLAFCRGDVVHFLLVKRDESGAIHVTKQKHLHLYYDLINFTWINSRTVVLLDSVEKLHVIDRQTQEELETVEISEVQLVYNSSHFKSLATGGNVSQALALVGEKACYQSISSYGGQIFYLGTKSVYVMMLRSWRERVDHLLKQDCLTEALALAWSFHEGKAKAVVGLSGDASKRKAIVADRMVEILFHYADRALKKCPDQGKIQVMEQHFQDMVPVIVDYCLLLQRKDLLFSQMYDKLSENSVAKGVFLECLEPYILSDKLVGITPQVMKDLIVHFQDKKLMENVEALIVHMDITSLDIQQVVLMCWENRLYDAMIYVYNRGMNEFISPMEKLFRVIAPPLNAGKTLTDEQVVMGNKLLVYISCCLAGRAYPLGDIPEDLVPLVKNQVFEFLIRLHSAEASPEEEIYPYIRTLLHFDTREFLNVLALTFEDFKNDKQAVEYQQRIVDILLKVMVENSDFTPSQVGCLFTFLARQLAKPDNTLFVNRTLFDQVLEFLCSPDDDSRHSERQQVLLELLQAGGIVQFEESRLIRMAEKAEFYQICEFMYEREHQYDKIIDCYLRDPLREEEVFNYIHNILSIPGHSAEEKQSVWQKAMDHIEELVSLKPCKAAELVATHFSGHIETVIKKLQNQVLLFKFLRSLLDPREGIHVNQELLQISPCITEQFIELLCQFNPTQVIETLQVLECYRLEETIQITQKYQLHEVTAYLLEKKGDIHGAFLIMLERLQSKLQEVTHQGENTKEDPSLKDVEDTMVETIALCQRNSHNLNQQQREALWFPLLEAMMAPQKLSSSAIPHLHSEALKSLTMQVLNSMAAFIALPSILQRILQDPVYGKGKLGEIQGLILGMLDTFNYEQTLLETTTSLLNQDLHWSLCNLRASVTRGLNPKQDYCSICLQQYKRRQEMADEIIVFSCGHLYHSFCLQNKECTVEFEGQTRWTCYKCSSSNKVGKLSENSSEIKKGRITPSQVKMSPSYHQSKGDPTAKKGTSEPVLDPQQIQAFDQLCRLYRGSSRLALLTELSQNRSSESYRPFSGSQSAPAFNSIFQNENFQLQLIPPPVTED
UniProt Q3ZAQ7: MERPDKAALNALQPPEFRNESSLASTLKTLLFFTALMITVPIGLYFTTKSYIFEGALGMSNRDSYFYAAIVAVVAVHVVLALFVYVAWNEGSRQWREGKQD
UniProt O00534: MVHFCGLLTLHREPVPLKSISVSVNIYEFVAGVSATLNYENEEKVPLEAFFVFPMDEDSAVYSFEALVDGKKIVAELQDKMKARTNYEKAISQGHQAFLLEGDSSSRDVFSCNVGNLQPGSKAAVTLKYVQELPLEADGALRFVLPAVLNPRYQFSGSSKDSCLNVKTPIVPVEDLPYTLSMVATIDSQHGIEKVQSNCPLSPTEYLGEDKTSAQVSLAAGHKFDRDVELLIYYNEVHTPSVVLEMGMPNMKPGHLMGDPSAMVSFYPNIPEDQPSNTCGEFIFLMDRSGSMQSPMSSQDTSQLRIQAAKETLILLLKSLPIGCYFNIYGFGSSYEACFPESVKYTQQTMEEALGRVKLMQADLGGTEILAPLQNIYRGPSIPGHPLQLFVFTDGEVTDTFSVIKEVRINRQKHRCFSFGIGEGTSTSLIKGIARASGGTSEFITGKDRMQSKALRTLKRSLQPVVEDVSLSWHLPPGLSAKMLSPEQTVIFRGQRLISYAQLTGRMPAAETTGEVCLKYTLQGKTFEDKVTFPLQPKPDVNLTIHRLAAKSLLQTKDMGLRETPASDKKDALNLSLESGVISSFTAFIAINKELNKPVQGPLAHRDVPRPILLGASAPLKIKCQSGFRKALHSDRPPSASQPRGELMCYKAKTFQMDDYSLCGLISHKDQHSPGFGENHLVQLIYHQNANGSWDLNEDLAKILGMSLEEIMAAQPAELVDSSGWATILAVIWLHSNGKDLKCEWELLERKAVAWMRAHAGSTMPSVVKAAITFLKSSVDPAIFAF

Tests used:
Assay in all cases: log2 fold change, soluble protein after heating vs DMSO (PISA); higher = thermal stabilisation; K562 lysate, 10 uM; active = over 0.2 and 3.5 SD of the protein, either way, in both replicates (recomputed)
erlotinib = compound: C#Cc1cccc(Nc2ncnc3cc(OCCOC)c(OCCOC)cc23)c1 [erlotinib]
Outline: (§1)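 Pellets of K562 cells were dounce-homogenised in PBS pH 7.4 with 1 mM MgCl2, and the crude extract was held at 1 mg/mL protein for a 30 min treatment with 10 μM compound. Aliquots were heated for 3 min over 48°C-58°C and pooled before NP-40 was added to 0.5% at 4°C. The supernatant from 21,000xg for 90 min was quantified by TMTpro 16plex LC-MS/MS with channel sums equalised. Values are reported from duplicates as log-two fold change in thermal stability relative to solvent controls.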

[1] = compound: C/C(=N\NC(=O)C1=CC(=CC=C1)S(=O)(=O)N2CCOCC2)/C3=C(C=CC(=C3)Cl)O
Outline: as §1

[2] = compound: C1=CC(=CC=C1C2=NC3=C(N2)C=C(C=C3)C(=O)N)OC4=CC=C(C=C4)Cl
Outline: as §1

[3] = compound: C1=CC2=C(C=CC(=C2)/C=C\3/C(=O)NC(=NCC4=CC=CS4)S3)N=C1
Outline: as §1

[4] = compound: C1=CC2=NC=CN=C2C=C1/C=C/3\C(=O)NC(=O)S3
Outline: as §1

[5] = compound: C1=CC=C(C=C1)C2=NC(=C(N2)C3=CC=NC=C3)C4=CC(=C(C=C4)Cl)O
Outline: as §1

[6] = compound: C1=CC=C2C(=C1)C3=NNC4=CC=CC(=C43)C2=O
Outline: as §1

[7] = compound: C1CCN(C1)C(=O)NC2=CC=CC(=C2)NC3=NC=C(C(=N3)NCCC4=CN=CN4)Br
Outline: as §1

[8] = compound: C1CN(CCC1(CC2=CC=C(C=C2)Cl)N)C3=NC=NC4=C3C=CN4
Outline: as §1

IRAK-1-4 Inhibitor I = compound: C1COCCN1CCN2C3=CC=CC=C3N=C2NC(=O)C4=CC(=CC=C4)[N+](=O)[O-] [IRAK-1-4 Inhibitor I]
Outline: as §1

Measured: log2 fold change

XPC (UniProt Q01831)
inactive: erlotinib 0.061 | [1] -0.151 | [2] 0.079 | [3] 0.075 | [4] -0.021 | [5] 0.109 | [6] -0.005 | [7] 0.034 | [8] -0.064 | IRAK-1-4 Inhibitor I 0.026

WDR73 (UniProt Q6P4I2)
inactive: erlotinib 0.002 | [1] -0.005 | [2] 0.037 | [3] -0.03 | [4] 0.038 | [5] -0.004 | [6] 0.006 | [7] -0.008 | [8] -0.03 | IRAK-1-4 Inhibitor I 0.008

WDR62 isoform 4 (UniProt O43379)
inactive: erlotinib 0.017 | [1] -0.027 | [2] -0.018 | [3] -0.007 | [4] -0.012 | [5] 0.017 | [6] -0.052 | [7] 0.024 | [8] -0.008 | IRAK-1-4 Inhibitor I 0.011

VPS53 isoform 4 (UniProt Q5VIR6)
inactive: erlotinib 0.023 | [1] 0.022 | [2] 0.033 | [3] 0.001 | [4] -0.001 | [5] -0.037 | [6] -0.033 | [7] 0.034 | [8] -0.017 | IRAK-1-4 Inhibitor I -0.01

WDR36 (UniProt Q8NI36)
inactive: erlotinib 0 | [1] 0.02 | [2] -0.031 | [3] 0.027 | [4] -0.025 | [5] 0.017 | [6] 0.008 | [7] 0.014 | [8] 0.004 | IRAK-1-4 Inhibitor I -0.049

WASL (UniProt O00401)
inactive: erlotinib -0.037 | [1] 0.097 | [2] 0.057 | [3] 0.001 | [4] -0.039 | [5] 0.013 | [6] -0.065 | [7] 0.012 | [8] -0.024 | IRAK-1-4 Inhibitor I 0.009

WRNIP1 (UniProt Q96S55)
inactive: erlotinib 0.019 | [1] -0.128 | [2] -0.014 | [3] -0.024 | [4] -0.005 | [5] 0.003 | [6] -0.064 | [7] 0.028 | [8] 0.023 | IRAK-1-4 Inhibitor I -0.05

WASHC2C (UniProt Q9Y4E1)
inactive: erlotinib -0.028 | [1] 0 | [2] -0.014 | [3] -0.036 | [4] -0.032 | [5] 0.006 | [6] -0.044 | [7] -0.051 | [8] 0.032 | IRAK-1-4 Inhibitor I 0.039

Taken from above (five entries):
VPS53 isoform 4 (UniProt Q5VIR6)
inactive: erlotinib 0.023 | [1] 0.022 | [2] 0.033 | [3] 0.001 | [4] -0.001 | [5] -0.037 | [6] -0.033 | [7] 0.034 | [8] -0.017 | IRAK-1-4 Inhibitor I -0.01

WDR36 (UniProt Q8NI36)
inactive: erlotinib 0 | [1] 0.02 | [2] -0.031 | [3] 0.027 | [4] -0.025 | [5] 0.017 | [6] 0.008 | [7] 0.014 | [8] 0.004 | IRAK-1-4 Inhibitor I -0.049

WASL (UniProt O00401)
inactive: erlotinib -0.037 | [1] 0.097 | [2] 0.057 | [3] 0.001 | [4] -0.039 | [5] 0.013 | [6] -0.065 | [7] 0.012 | [8] -0.024 | IRAK-1-4 Inhibitor I 0.009

WRNIP1 (UniProt Q96S55)
inactive: erlotinib 0.019 | [1] -0.128 | [2] -0.014 | [3] -0.024 | [4] -0.005 | [5] 0.003 | [6] -0.064 | [7] 0.028 | [8] 0.023 | IRAK-1-4 Inhibitor I -0.05

WASHC2C (UniProt Q9Y4E1)
inactive: erlotinib -0.028 | [1] 0 | [2] -0.014 | [3] -0.036 | [4] -0.032 | [5] 0.006 | [6] -0.044 | [7] -0.051 | [8] 0.032 | IRAK-1-4 Inhibitor I 0.039

(list continues)

WAC (UniProt Q9BTA9)
inactive: erlotinib 0.027 | [1] 0.004 | [2] 0.027 | [3] 0.092 | [4] -0.064 | [5] 0.008 | [6] -0.076 | [7] 0.051 | [8] 0.015 | IRAK-1-4 Inhibitor I -0.006

VPS41 (UniProt P49754)
inactive: erlotinib 0.032 | [1] 0.073 | [2] -0.029 | [3] 0.062 | [4] -0.003 | [5] 0.036 | [6] -0.033 | [7] -0.025 | [8] 0.049 | IRAK-1-4 Inhibitor I -0.008

WDR4 (UniProt P57081)
inactive: erlotinib 0.014 | [1] -0.002 | [2] 0.041 | [3] 0.002 | [4] 0.001 | [5] -0.007 | [6] -0.001 | [7] -0.018 | [8] 0.02 | IRAK-1-4 Inhibitor I -0.008

WDR91 (UniProt A4D1P6)
inactive: erlotinib 0.02 | [1] 0.04 | [2] -0.019 | [3] 0.038 | [4] -0.034 | [5] 0.002 | [6] 0.019 | [7] -0.011 | [8] -0.007 | IRAK-1-4 Inhibitor I -0.013

WDR41 (UniProt Q9HAD4)
inactive: erlotinib -0.071 | [1] -0.044 | [2] -0.021 | [3] 0.015 | [4] -0.027 | [5] -0.113 | [6] 0.031 | [7] -0.091 | [8] 0.049 | IRAK-1-4 Inhibitor I 0.029

VPS33A (UniProt Q96AX1)
inactive: erlotinib 0.024 | [1] 0.005 | [2] 0.024 | [3] 0.035 | [4] 0.018 | [5] -0.006 | [6] -0.023 | [7] -0.025 | [8] 0.036 | IRAK-1-4 Inhibitor I 0.015

WASHC2A (UniProt Q641Q2)
inactive: erlotinib 0 | [1] -0.006 | [2] 0.011 | [3] 0.009 | [4] -0.006 | [5] -0.006 | [6] -0.001 | [7] 0 | [8] 0.005 | IRAK-1-4 Inhibitor I -0.009

VPS52 (UniProt Q8N1B4)
inactive: erlotinib -0.029 | [1] 0.031 | [2] -0.04 | [3] 0.046 | [4] 0.005 | [5] -0.016 | [6] -0.028 | [7] -0.034 | [8] 0.024 | IRAK-1-4 Inhibitor I -0.025

VPS29 isoform 2 (UniProt Q9UBQ0)
inactive: erlotinib -0.005 | [1] 0.05 | [2] -0.013 | [3] 0.004 | [4] 0.018 | [5] 0.01 | [6] 0.034 | [7] -0.012 | [8] 0.009 | IRAK-1-4 Inhibitor I -0.021

WDR61 (UniProt Q9GZS3)
inactive: erlotinib -0.011 | [1] -0.009 | [2] 0.02 | [3] -0.025 | [4] -0.029 | [5] -0.03 | [6] 0.031 | [7] 0.012 | [8] 0.023 | IRAK-1-4 Inhibitor I -0.036

VTN (UniProt P04004)
inactive: erlotinib -0.065 | [1] -0.006 | [2] 0.003 | [3] -0.033 | [4] 0.107 | [5] -0.096 | [6] -0.129 | [7] -0.065 | [8] -0.042 | IRAK-1-4 Inhibitor I 0.043

WIPI2 (UniProt Q9Y4P8)
inactive: erlotinib -0.006 | [1] -0.042 | [2] -0.009 | [3] 0.064 | [4] -0.037 | [5] -0.003 | [6] 0.035 | [7] -0.054 | [8] -0.047 | IRAK-1-4 Inhibitor I 0.021

WBP11 (UniProt Q9Y2W2)
inactive: erlotinib -0.022 | [1] -0.103 | [2] 0.033 | [3] -0.004 | [4] -0.023 | [5] 0.007 | [6] 0.031 | [7] -0.004 | [8] -0.034 | IRAK-1-4 Inhibitor I -0.002

VPS8 (UniProt Q8N3P4)
inactive: erlotinib 0.04 | [1] -0.006 | [2] -0.059 | [3] 0.036 | [4] 0.028 | [5] 0.164 | [6] -0.045 | [7] 0.01 | [8] 0.026 | IRAK-1-4 Inhibitor I 0.074

WEE1 (UniProt P30291)
inactive: erlotinib 0.079 | [1] -0.014 | [2] -0.091 | [3] -0.051 | [4] 0.019 | [5] 0.01 | [6] -0.006 | [7] -0.07 | [8] 0.021 | IRAK-1-4 Inhibitor I 0.056

WDR47 (UniProt O94967)
inactive: erlotinib 0.003 | [1] 0.04 | [2] 0.023 | [3] -0.039 | [4] 0.039 | [5] 0.074 | [6] 0.015 | [7] 0.046 | [8] 0.064 | IRAK-1-4 Inhibitor I -0.034

WDTC1 (UniProt Q8N5D0)
inactive: erlotinib 0.025 | [1] 0.006 | [2] -0.044 | [3] 0.04 | [4] 0.006 | [5] 0.058 | [6] -0.01 | [7] -0.021 | [8] 0.038 | IRAK-1-4 Inhibitor I 0.008

VMA21 (UniProt Q3ZAQ7)
inactive: erlotinib -0.008 | [1] -0.076 | [2] 0.239 | [3] 0.009 | [4] 0.054 | [5] -0.065 | [6] 0.038 | [7] -0.161 | [8] 0.02 | IRAK-1-4 Inhibitor I -0.006

VWA5A (UniProt O00534)
inactive: erlotinib -0.021 | [1] -0.026 | [2] 0.013 | [3] 0.005 | [4] -0.012 | [5] 0.043 | [6] -0.061 | [7] -0.004 | [8] 0.048 | IRAK-1-4 Inhibitor I 0.011

VPS35 (UniProt Q96QK1)
inactive: erlotinib -0.016 | [1] 0.028 | [2] 0.008 | [3] 0.005 | [4] 0.002 | [5] 0.03 | [6] -0.008 | [7] -0.003 | [8] 0.017 | IRAK-1-4 Inhibitor I 0.003

WDR70 (UniProt Q9NW82)
inactive: erlotinib 0.068 | [1] 0.012 | [2] -0.04 | [3] -0.005 | [4] -0.005 | [5] 0.009 | [6] 0.004 | [7] -0.013 | [8] -0.028 | IRAK-1-4 Inhibitor I -0.014

WSB1 (UniProt Q9Y6I7)
inactive: [5] 0.037 | IRAK-1-4 Inhibitor I -0.093

WDR19 (UniProt Q8NEZ3)
inactive: [4] 0.014
